Laboratory results reported in patent publication US20030211454A1, “Detection reagent” (priority 2000, published 2003).

Assay: Fluorescence emission spectra of Compound Z in phosphate buffers of pH 4.5 and 7.4
Format: physicochemical
Settings: ~10^-6 M

For `CC1(C)C(/C=C/C=C/C=C2/Nc3ccc(S(=O)(=O)O)cc3C2(C)C)=Nc2ccc(C(=O)NCc3ccc4ccc5cccc6ccc3c4c56)cc21` [Compound Z], the “Cy5 emission at 650-700 nm upon excitation at 343 nm (pyrene)” value (pH 4.5 phosphate buffer) was “no emission from the Cy5”, the “Cy5 emission upon excitation at 633 nm” value (pH 4.5 phosphate buffer) was “emission occurs from the Cy5” and the “Cy5 emission upon excitation at 633 nm” value (pH 7.4 buffer) was “little emission from Cy5”. The “energy transfer to Cy5 (signal at 650 nm) upon excitation at 343 nm” value (pH 7.4 phosphate buffer) was “no energy transfer to Cy5”.
